No constants are given. Whether binding was seen depends on the method and setting. Some binding calls cover weakened binding; strength is not graded here.

Amino acid sequences for entries named in this document (tags omitted).
UniProt Q12983: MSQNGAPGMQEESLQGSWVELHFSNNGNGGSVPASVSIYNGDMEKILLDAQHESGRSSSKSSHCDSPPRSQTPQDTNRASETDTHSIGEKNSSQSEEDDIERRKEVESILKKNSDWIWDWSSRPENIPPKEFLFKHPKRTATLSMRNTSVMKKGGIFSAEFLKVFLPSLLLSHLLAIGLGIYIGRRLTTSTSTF
UniProt Q96NL1: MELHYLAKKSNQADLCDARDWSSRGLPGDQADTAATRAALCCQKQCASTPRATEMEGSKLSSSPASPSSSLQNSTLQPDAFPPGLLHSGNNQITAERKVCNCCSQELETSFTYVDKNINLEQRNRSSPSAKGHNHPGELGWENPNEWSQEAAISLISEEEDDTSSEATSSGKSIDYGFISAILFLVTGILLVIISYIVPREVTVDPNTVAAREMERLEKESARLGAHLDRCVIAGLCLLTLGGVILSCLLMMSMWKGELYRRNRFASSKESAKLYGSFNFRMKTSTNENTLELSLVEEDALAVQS

This passage reports binding results from article PMC3234227.

In the assay the target is BNIP3, yeast two-hybrid fusion (human) (UniProt Q12983).

Take “TMEM74, yeast two-hybrid fusion (from UniProt Q96NL1 1-305)”: the binding result is “binds”.
